{"source": "PubChem BioAssay AID1259254 (NCATS, 2017)", "assay": "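Gene knock-downs that lead to re-replication, shown by excess G2 DNA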 (primary screen)", "cells": "human HCT116 colorectal cancer cells", "knock-down reagent": "single siRNA against human genes", "time to read-out": "3 days", "measurement": "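Nuclei stained with Hoechst and imaged; cell-cycle phase assigned by DNA content; G2 share scaled per plate, non-targeting siRNA 0%, GMNN siRNA 100%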", "reading the numbers": "G2 robust z-score: higher = more G2 cells, more excess DNA replication", "call rule": "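An siRNA counts as active if its G2 robust z-score lies at least 5 MADs above the screen median; here such calls match roughly 38% of GMNN control or more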", "note": "This is an unselected part of about 59,000 reagents tested. About 1,550 of them (2.6%) count as active. 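G2 share is only a proxy for re-replication; each gene was hit by three separate siRNAs, and active genes were retested.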 Unmarked entries are inactive. Not all columns of the deposit are shown. The record does not give: the amount of reagent."}
{"gene knocked down": "ACER3", "PubChem SID": "SID160743559", "G2 robust z-score": 0.194}
{"gene knocked down": "ACER3", "PubChem SID": "SID160743560", "G2 robust z-score": 0.38}
{"gene knocked down": "ACER3", "PubChem SID": "SID160743561", "G2 robust z-score": 3.39}
{"gene knocked down": "FOXC2", "PubChem SID": "SID160723765", "G2 robust z-score": -0.893}
{"gene knocked down": "FOXC2", "PubChem SID": "SID160730819", "G2 robust z-score": 0.54}
{"gene knocked down": "FOXC2", "PubChem SID": "SID160766164", "G2 robust z-score": 3.91}
{"gene knocked down": "SUSD2", "PubChem SID": "SID160731552", "G2 robust z-score": -0.882}
{"gene knocked down": "SUSD2", "PubChem SID": "SID160744948", "G2 robust z-score": "6.57 (active)"}
{"gene knocked down": "SUSD2", "PubChem SID": "SID160744949", "G2 robust z-score": -0.363}
{"gene knocked down": "ZNF562", "PubChem SID": "SID160731469", "G2 robust z-score": -0.477}
{"gene knocked down": "ZNF562", "PubChem SID": "SID160742214", "G2 robust z-score": 0.0192}
{"gene knocked down": "ZNF562", "PubChem SID": "SID160742215", "G2 robust z-score": 1.13}

Next part; the last 2 above are carried over.
{"gene knocked down": "ZNF562", "PubChem SID": "SID160742214", "G2 robust z-score": 0.0192}
{"gene knocked down": "ZNF562", "PubChem SID": "SID160742215", "G2 robust z-score": 1.13}
{"gene knocked down": "STRA8", "PubChem SID": "SID160764920", "G2 robust z-score": 0.581}
{"gene knocked down": "STRA8", "PubChem SID": "SID160764921", "G2 robust z-score": -0.624}
{"gene knocked down": "STRA8", "PubChem SID": "SID160764922", "G2 robust z-score": 0.842}
{"gene knocked down": "CORO1B", "PubChem SID": "SID160745757", "G2 robust z-score": "6.49 (active)"}
{"gene knocked down": "CORO1B", "PubChem SID": "SID160745758", "G2 robust z-score": 0.429}
{"gene knocked down": "CORO1B", "PubChem SID": "SID160745759", "G2 robust z-score": 1.01}
